In the assay the target is T1, Recombinant mouse CD30L (soluble, 6x histidine-tagged, R&D Systems) (mouse) (UniProt P32972).
T1 sequence (looked up): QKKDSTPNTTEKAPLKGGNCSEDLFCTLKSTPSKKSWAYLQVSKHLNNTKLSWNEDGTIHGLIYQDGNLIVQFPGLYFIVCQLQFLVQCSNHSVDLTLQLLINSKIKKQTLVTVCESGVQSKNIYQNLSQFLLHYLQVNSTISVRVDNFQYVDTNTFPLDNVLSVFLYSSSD
The assay is described as follows: scintillation proximity assay, Fc fusion on protein A FlashPlate, 150 pM mouse 125I-CD30L with or without unlabelled CD30L. (In general: In a scintillation proximity assay essentially only radioactivity close to the scintillant gives light.)

The chains behind the UniProt entries cited, without tags or fusion partners. Where a name states a change or a piece, a line headed by the entry shows the natural chain unless it says otherwise.
UniProt Q60846: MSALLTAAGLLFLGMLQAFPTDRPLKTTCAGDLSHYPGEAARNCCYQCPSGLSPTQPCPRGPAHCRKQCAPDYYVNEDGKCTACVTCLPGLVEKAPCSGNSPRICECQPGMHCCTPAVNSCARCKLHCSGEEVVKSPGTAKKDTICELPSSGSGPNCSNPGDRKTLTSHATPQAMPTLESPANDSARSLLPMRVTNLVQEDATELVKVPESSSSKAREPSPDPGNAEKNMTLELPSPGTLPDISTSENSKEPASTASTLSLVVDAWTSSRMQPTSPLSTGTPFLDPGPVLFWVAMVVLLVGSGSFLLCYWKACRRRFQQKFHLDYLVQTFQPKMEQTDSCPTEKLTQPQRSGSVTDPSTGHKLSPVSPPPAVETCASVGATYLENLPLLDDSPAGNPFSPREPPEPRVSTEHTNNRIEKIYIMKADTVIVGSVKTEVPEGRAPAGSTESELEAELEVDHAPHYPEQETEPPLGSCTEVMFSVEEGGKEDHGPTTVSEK

No constants are given. Whether binding was seen depends on the method and setting. Some results given as binding are weak or reduced against the parent protein; the word gives no strength. Sequences can lack the tags named with a protein.

Take “Recombinant mouse CD30-Fc (R&D Systems) (from UniProt Q60846 19-281) (Fc fusion)”: the binding entry is “binds”.
